Earlier results, collected in US9867860B2, “Formulations for preventing and treating decreasing platelet cell counts” (priority 2013, dated 2018).
At least one structure is not confirmed: it was looked up by name or label, or the drawing left a doubt.

Legend:
thrombocytopenia = conditions: Vitamin B12 and folate together, deficiency
[1] = system: patients receiving chemotherapy for advanced solid tumors; conditions: phase II; due to slow therapeutic response
[2] = system: patients with ITP and liver disease; conditions: continuous treatment

Row | SMILES | correction of thrombocytopenia on repletion (thrombocytopenia) | primary endpoint [1] | platelet count [2]
1 | Nc1nc(=O)c2nc(CNc3ccc(C(=O)N[C@@H](CCC(=O)O)C(=O)O)cc3)cnc2[nH]1 [folate] | rapidly corrects |  | 
2 | CC1=NN(c2ccc(C)c(C)c2)C(=O)/C1=N\Nc1cccc(-c2cccc(C(=O)O)c2)c1O [Eltrombopag] |  | failed to meet primary endpoint | increase platelet count
